Laboratory results as given in US9057054B2, “Antigen-specific long-term memory T-cells” (THE REGENTS OF THE UNIVERSITY OF MICHIGAN, priority 2009, dated 2015).
For at least one compound, name, drawing or mass did not settle the structure.

Assays:
[1] = test system: P14 naive CD44loCD8+ T cells; experiment: In vitro priming of CFSE-labeled P14 naive CD8+ T cells with gp33-pulsed DCs, IL-2 and titrated rapamycin: cell counts, CFSE division, live cell ratio; assay type: cell-based, mouse
P14 CD8+ T cells = experiment: Flow cytometry and quantitative RT-PCR phenotype of P14 CD8+ T cells primed with or without 50 nM rapamycin; assay type: cell-based, mouse
[2] = test system: antigen-primed CD8+ T cells; experiment: Oxygen consumption and lactate production assay, share of ATP from oxidative phosphorylation and glycolysis; settings: relative to unstimulated CD8 naive T, compared with IL-2 CD8+ T cells
[3] = 50 nM rapamycin, versus IL-2 CD8+ T cells, flow cytometry
[4] = qRT-PCR, relative to IL-2 CD8+ T cells

CO[C@H]1C[C@@H]2CC[C@@H](C)[C@@](O)(O2)C(=O)C(=O)N2CCCC[C@H]2C(=O)O[C@H]([C@H](C)C[C@@H]2CC[C@@H](O)[C@H](OC)C2)CC(=O)[C@H](C)/C=C(\C)[C@@H](O)[C@@H](OC)C(=O)[C@H](C)C[C@H](C)/C=C/C=C/C=C/1C [rapamycin] was tested, and the “number of proliferating CD8+ T cells” value ([1]; 5 to 50 nM rapamycin, gp33 10^-7M, 8 days) was “minimal increased number”, the “cell division and expansion of gp33-activated CD8+ T cells” value ([1]; rapamycin 0 to 100 nM, gp33 10^-7M, IL-2, over a period of 8 days) was “did not impair either cell division or expansion” and the “viability of CD8+ T cells depending on gp33 concentration” value ([1]; rapamycin 50 nM, different concentrations of gp33) was “only increased the viability of CD8+ T cells in the cultures with gp33 at a concentration higher than 10-8 M”. For the same compound, the “survival after removal of rapamycin from the culture” value ([1]; secondary culture without IL-2, over 84 hours, versus IL-2 cells) was “greater ability than IL-2 cells to survive”, the IFN-γ production (P14 CD8+ T cells; 50 nM rapamycin, after anti-CD3 antibody stimulation overnight) was “minimal” and the CD62L expression (P14 CD8+ T cells; [3]) was “higher levels”. For the same compound, the CD127 expression (P14 CD8+ T cells; [3]) was “higher levels”, the KLRG1 expression (P14 CD8+ T cells; [3]) was “lower levels” and the PD-1 expression (P14 CD8+ T cells; [3]) was “lower levels”. For the same compound, the “expression of Eomesodermin (Eomes)” value (P14 CD8+ T cells; [4]) was “increased expression”, the “expression of Tbx21 (encoding T-bet)” value (P14 CD8+ T cells; [4]) was “increased expression” and the production of lactate [2] was “equally increased”.
